According to the supplement of paper PMC10849652:
This is one part of the list.

The chains behind the UniProt entries cited, without tags or fusion partners. Where a name states a change or a piece, a line headed by the entry shows the natural chain unless it says otherwise.
UniProt Q15181: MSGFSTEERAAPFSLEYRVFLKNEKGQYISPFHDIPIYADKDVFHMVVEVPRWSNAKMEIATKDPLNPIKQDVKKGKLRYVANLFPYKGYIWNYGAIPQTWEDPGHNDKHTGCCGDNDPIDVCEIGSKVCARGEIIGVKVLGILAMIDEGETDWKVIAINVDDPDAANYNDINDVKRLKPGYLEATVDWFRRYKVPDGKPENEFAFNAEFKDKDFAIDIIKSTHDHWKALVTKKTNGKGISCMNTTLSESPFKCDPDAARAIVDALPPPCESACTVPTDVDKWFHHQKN
UniProt Q6UW63: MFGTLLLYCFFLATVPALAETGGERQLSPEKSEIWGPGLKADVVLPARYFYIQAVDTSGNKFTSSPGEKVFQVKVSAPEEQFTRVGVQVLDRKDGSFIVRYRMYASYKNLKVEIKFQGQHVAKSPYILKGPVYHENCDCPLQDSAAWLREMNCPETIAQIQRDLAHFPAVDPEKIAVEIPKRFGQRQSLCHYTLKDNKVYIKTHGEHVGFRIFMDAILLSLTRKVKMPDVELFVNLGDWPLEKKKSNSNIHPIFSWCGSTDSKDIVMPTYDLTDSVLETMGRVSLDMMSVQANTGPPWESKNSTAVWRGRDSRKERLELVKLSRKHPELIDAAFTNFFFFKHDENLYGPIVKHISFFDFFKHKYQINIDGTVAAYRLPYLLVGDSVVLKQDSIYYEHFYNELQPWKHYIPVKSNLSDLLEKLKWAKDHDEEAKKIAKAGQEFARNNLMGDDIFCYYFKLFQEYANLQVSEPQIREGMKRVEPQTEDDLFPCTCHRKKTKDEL
UniProt Q13794: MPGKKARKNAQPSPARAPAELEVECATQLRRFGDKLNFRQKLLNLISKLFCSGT
UniProt Q15063: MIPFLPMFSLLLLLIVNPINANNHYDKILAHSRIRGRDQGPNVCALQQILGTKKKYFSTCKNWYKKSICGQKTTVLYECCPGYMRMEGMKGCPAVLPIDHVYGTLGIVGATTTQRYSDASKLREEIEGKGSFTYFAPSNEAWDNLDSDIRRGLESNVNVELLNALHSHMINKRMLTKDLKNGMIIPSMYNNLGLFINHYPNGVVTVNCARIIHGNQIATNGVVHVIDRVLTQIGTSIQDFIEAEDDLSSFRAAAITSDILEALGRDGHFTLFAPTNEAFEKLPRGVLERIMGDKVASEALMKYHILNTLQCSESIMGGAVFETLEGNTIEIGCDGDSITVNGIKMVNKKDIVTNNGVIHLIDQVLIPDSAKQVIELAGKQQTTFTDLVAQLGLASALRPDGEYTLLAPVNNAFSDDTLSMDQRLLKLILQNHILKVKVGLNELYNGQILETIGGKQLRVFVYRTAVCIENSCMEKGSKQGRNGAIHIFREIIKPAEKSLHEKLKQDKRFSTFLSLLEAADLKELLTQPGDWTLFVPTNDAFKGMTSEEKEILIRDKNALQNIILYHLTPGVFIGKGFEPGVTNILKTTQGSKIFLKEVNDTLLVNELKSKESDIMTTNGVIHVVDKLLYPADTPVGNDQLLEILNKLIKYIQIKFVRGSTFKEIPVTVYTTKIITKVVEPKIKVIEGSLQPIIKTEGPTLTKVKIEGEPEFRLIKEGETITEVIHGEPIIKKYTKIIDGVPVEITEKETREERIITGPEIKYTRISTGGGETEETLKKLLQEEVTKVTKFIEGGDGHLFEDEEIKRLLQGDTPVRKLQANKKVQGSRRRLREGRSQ
UniProt P49005: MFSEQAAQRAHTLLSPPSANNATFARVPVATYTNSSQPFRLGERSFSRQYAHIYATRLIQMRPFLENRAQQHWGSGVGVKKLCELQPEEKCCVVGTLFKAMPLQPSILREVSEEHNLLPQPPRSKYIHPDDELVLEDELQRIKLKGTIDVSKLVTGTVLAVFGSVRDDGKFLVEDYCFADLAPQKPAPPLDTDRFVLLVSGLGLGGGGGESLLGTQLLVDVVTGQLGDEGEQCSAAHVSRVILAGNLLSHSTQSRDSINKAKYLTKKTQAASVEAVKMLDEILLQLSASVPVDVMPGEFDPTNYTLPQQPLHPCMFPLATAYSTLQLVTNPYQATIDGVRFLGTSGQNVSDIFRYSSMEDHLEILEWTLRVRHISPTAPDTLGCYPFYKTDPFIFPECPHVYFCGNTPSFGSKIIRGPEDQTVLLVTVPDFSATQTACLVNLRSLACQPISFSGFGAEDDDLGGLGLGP
UniProt O94903: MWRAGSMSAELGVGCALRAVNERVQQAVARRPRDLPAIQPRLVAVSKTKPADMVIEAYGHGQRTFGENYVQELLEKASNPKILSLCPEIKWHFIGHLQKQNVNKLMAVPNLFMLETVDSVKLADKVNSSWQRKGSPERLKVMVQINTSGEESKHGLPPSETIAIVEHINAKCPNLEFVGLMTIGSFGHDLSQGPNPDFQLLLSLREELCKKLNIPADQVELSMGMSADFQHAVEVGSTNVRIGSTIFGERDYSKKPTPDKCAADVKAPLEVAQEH
UniProt Q9HAB8: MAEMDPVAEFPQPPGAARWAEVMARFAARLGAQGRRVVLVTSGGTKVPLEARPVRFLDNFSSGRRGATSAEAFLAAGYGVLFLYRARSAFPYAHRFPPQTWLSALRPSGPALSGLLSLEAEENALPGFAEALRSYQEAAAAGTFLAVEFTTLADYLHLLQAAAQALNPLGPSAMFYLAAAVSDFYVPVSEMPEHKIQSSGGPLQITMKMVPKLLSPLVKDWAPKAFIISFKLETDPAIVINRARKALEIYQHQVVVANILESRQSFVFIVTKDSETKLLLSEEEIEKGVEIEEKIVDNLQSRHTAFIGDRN
UniProt Q9NRF9: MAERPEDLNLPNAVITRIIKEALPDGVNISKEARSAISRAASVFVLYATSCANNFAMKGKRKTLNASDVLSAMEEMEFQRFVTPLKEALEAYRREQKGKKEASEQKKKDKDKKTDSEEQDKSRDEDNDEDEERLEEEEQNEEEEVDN
UniProt O43447: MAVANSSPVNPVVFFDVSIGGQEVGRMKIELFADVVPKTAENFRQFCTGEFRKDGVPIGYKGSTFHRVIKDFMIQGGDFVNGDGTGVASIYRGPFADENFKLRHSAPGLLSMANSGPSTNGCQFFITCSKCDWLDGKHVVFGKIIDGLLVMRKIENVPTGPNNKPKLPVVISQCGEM
UniProt Q9Y244: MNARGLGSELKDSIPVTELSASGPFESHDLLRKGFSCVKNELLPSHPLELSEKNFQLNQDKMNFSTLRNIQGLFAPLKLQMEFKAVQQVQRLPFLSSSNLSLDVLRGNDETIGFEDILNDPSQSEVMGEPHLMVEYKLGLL
UniProt Q9H5K3: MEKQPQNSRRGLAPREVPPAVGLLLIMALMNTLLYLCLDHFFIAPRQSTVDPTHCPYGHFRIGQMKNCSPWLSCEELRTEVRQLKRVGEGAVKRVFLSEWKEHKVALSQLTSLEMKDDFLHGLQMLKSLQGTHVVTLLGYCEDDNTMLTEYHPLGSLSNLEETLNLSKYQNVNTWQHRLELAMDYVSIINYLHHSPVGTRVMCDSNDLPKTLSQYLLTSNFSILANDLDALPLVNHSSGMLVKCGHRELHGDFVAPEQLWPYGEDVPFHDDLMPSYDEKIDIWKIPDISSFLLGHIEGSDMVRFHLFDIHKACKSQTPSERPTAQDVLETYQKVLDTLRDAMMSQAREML
UniProt O75688: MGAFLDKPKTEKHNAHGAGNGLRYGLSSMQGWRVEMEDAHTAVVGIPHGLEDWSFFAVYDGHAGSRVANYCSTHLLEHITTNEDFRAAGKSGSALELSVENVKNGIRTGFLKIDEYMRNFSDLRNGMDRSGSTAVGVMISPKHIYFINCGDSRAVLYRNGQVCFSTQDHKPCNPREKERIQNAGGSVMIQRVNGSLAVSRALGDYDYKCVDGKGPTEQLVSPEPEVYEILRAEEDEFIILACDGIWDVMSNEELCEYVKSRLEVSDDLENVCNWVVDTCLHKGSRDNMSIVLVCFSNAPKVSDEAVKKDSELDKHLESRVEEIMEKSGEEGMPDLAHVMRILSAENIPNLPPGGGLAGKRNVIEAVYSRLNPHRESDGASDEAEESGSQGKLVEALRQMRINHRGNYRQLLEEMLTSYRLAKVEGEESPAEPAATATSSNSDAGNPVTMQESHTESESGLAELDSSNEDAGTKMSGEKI
UniProt Q969H6: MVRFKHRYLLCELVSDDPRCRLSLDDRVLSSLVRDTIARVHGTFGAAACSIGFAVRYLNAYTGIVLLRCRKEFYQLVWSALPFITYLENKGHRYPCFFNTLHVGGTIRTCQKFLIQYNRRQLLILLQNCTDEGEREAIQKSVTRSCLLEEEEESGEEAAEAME
UniProt Q9H1D9: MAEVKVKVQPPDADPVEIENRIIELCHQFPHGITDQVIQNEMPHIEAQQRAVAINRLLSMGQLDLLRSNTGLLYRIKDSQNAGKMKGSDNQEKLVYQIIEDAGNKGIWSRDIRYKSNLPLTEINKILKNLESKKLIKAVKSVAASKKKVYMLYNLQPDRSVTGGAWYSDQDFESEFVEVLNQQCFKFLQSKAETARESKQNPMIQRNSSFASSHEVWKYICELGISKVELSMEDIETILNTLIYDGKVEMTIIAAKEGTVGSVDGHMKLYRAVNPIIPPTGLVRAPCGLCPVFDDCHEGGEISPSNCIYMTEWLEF
UniProt Q9UNP9: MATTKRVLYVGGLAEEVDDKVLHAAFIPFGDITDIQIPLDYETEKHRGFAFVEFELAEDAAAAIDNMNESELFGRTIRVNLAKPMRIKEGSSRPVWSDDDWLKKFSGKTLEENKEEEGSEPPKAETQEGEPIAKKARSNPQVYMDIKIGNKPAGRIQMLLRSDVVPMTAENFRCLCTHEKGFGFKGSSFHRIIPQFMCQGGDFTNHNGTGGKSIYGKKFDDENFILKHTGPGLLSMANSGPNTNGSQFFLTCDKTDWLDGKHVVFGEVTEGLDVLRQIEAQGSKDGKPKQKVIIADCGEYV
UniProt O95602, whole entry, looked up: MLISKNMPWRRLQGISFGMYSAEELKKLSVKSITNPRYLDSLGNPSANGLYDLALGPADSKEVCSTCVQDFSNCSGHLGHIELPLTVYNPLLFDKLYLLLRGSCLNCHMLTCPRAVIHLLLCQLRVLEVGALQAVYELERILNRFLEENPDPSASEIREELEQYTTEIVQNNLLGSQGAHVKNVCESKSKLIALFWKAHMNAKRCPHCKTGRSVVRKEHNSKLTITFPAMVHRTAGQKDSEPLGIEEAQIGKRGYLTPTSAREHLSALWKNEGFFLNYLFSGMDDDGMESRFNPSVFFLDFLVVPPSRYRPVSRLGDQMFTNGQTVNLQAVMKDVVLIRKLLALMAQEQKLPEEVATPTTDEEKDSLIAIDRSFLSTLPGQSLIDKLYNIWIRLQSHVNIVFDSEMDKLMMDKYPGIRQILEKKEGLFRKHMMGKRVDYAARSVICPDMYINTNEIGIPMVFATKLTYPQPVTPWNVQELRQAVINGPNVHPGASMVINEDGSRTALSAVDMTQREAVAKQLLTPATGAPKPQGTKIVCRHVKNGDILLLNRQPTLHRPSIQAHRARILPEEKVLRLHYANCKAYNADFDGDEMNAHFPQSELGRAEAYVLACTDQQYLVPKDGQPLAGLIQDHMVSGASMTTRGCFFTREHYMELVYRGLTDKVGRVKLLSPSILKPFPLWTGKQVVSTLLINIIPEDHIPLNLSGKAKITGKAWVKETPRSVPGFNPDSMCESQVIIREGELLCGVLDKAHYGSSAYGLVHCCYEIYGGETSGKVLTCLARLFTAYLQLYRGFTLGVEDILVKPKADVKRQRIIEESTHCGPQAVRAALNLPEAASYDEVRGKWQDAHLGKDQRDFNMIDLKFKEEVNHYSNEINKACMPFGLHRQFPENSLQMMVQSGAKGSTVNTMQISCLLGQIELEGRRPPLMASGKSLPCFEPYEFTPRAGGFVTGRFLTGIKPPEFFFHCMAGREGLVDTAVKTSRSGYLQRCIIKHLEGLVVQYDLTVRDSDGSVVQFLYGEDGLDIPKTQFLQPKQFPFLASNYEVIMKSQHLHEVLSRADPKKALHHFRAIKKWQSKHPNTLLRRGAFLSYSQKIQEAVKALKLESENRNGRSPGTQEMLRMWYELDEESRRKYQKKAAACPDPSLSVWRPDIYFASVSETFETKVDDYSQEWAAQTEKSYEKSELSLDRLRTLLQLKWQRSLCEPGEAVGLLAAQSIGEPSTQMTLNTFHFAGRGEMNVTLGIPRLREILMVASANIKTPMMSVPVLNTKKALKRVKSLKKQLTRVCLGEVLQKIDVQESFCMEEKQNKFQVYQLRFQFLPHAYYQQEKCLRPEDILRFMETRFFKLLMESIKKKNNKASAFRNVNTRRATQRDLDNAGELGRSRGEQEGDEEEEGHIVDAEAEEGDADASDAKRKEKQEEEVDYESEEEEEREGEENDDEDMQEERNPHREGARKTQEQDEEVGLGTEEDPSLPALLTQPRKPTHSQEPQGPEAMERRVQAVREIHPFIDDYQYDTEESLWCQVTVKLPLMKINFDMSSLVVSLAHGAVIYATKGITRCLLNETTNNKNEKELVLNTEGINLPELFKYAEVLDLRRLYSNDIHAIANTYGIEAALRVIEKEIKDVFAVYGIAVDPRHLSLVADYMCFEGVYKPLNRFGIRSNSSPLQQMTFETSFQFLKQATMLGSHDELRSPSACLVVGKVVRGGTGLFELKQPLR

Legend:
Assay in all cases: log2 fold change, soluble protein after heating vs DMSO (PISA); higher = thermal stabilisation; K562 cells, 10 uM, 30 min; active = over 0.2 and 3.5 SD of the protein, either way, in both replicates (recomputed)
bafetinib = compound: Cc1ccc(NC(=O)c2ccc(CN3CC[C@H](N(C)C)C3)c(C(F)(F)F)c2)cc1Nc1nccc(-c2cncnc2)n1 [bafetinib]
Method in brief: (§1)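 Soluble protein was defined as the supernatant after 21,000xg for 90 min. It came from K562 cells at 2×10^6 cells/mL given 10 μM compound for 30 min, heated in aliquots for 3 min across 48°C-58°C, pooled, and extracted in PBS with 0.5% NP-40 at 4°C, and was quantified by TMTpro 16plex LC-MS/MS with equalised channel sums. Thermal stability against control samples, from duplicates, is reported as log2 fold change.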

[1] = compound: Cc1cccc(CC(=O)N2CCc3c2ccc(-c2cn(C)c4ncnc(N)c24)c3F)n1
Method in brief: as §1

nilotinib = compound: Cc1cn(-c2cc(NC(=O)c3ccc(C)c(Nc4nccc(-c5cccnc5)n4)c3)cc(C(F)(F)F)c2)cn1 [nilotinib]
Method in brief: as §1

[2] = compound: Cc1nc(Nc2n[nH]c3c2CN(C(=O)N[C@H](CN(C)C)c2ccccc2)C3(C)C)c2sccc2n1
Method in brief: as §1

dasatinib = compound: Cc1nc(Nc2ncc(C(=O)Nc3c(C)cccc3Cl)s2)cc(N2CCN(CCO)CC2)n1 [dasatinib]
Method in brief: as §1

[3] = compound: Cc1ncc(-c2ccnc(Nc3ccc(S(C)(=O)=O)cc3)n2)n1C(C)C
Method in brief: as §1

[4] = compound: Cn1cc(-c2ccc3c(c2)CCN3C(=O)Cc2cccc(C(F)(F)F)c2)c2c(N)ncnc21
Method in brief: as §1

[5] = compound: Cn1cc(-c2ccc3nnc(C(F)(F)c4ccc5ncccc5c4)n3n2)cn1
Method in brief: as §1

tipifarnib = compound: Cn1cncc1[C@@](N)(c1ccc(Cl)cc1)c1ccc2c(c1)c(-c1cccc(Cl)c1)cc(=O)n2C [tipifarnib]
Method in brief: as §1

mubritinib = compound: FC(F)(F)c1ccc(/C=C/c2nc(COc3ccc(CCCCn4ccnn4)cc3)co2)cc1 [mubritinib]
Method in brief: as §1

Measured: log2 fold change

PPA1 (UniProt Q15181)
inactive: bafetinib 0.033 | [1] 0.01 | nilotinib 0.028 | [2] 0.067 | dasatinib -0.009 | [3] -0.001 | [4] 0.038 | [5] -0.003 | tipifarnib -0.09 | mubritinib 0.02

POGLUT2 (UniProt Q6UW63)
inactive: bafetinib 0.003 | [1] -0.014 | nilotinib -0.001 | [2] 0.05 | dasatinib 0.039 | [3] -0.05 | [4] -0.018 | [5] 0.006 | tipifarnib 0.096 | mubritinib 0.159

PMAIP1 (UniProt Q13794)
inactive: bafetinib -0.24 | [1] -0.122 | nilotinib -0.289 | [2] -0.002 | dasatinib -0.146 | [3] 0.041 | [4] 0.107 | [5] -0.052 | tipifarnib 0.17 | mubritinib 0.071

POLR3G (UniProt O15318)
inactive: bafetinib -0.049 | [1] 0.074 | nilotinib 0.032 | [2] -0.041 | dasatinib 0.04 | [3] -0.026 | [4] 0.008 | [5] 0.004 | tipifarnib 0.103 | mubritinib 0.069

POSTN (UniProt Q15063)
inactive: bafetinib -0.074 | [1] -0.009 | nilotinib 0.083 | [2] 0.038 | dasatinib -0.031 | [3] 0.189 | [4] 0.23 | [5] 0.028 | tipifarnib 0.019 | mubritinib -0.139

POLD2 (UniProt P49005)
inactive: bafetinib -0.062 | [1] 0.059 | nilotinib -0.054 | [2] 0.008 | dasatinib -0.046 | [3] -0.067 | [4] 0.051 | [5] -0.028 | tipifarnib -0.033 | mubritinib 0.011

POLR3B (UniProt Q9NW08)
inactive: bafetinib 0.104 | [1] 0.045 | nilotinib -0.111 | [2] -0.285 | dasatinib -0.238 | [3] -0.028 | [4] -0.059 | [5] 0.089 | tipifarnib -0.108 | mubritinib -0.086

POGLUT1 (UniProt Q8NBL1)
inactive: bafetinib 0.009 | [1] 0.122 | nilotinib -0.001 | [2] 0.03 | dasatinib 0.024 | [3] -0.049 | [4] -0.022 | [5] -0.073 | tipifarnib 0.048 | mubritinib -0.046

PPIP5K1 (UniProt Q6PFW1)
inactive: bafetinib 0.02 | [1] -0.003 | nilotinib 0.078 | [2] -0.019 | dasatinib 0.03 | [3] -0.029 | [4] 0.045 | [5] 0.069 | tipifarnib -0.017 | mubritinib 0.021

PLPBP (UniProt O94903)
inactive: bafetinib 0.053 | [1] -0.08 | nilotinib 0.158 | [2] -0.228 | dasatinib -0.111 | [3] 0.003 | [4] -0.135 | [5] 0.004 | tipifarnib 0.055 | mubritinib -0.034

PNPO (UniProt Q9NVS9)
inactive: bafetinib -0.063 | [1] 0.048 | nilotinib -0.015 | [2] 0.021 | dasatinib -0.038 | [3] 0.064 | [4] 0.037 | [5] -0.041 | tipifarnib 0.009 | mubritinib 0.009

PPCS (UniProt Q9HAB8)
inactive: bafetinib -0.017 | [1] 0.011 | nilotinib 0.035 | [2] -0.072 | dasatinib -0.065 | [3] -0.003 | [4] 0.019 | [5] 0.057 | tipifarnib -0.001 | mubritinib 0.05

POLE3 (UniProt Q9NRF9)
inactive: bafetinib 0.023 | [1] 0 | nilotinib -0.013 | [2] -0.035 | dasatinib -0.014 | [3] -0.023 | [4] -0.021 | [5] 0.024 | tipifarnib 0.018 | mubritinib 0.044

PPIH (UniProt O43447)
inactive: bafetinib 0.009 | [1] 0.018 | nilotinib -0.019 | [2] -0.019 | dasatinib -0.027 | [3] -0.006 | [4] 0.01 | [5] 0.058 | tipifarnib -0.052 | mubritinib 0.021

2 successive records from above, for reference:
PPCS (UniProt Q9HAB8)
inactive: bafetinib -0.017 | [1] 0.011 | nilotinib 0.035 | [2] -0.072 | dasatinib -0.065 | [3] -0.003 | [4] 0.019 | [5] 0.057 | tipifarnib -0.001 | mubritinib 0.05

POLE3 (UniProt Q9NRF9)
inactive: bafetinib 0.023 | [1] 0 | nilotinib -0.013 | [2] -0.035 | dasatinib -0.014 | [3] -0.023 | [4] -0.021 | [5] 0.024 | tipifarnib 0.018 | mubritinib 0.044

Following part

POMP (UniProt Q9Y244)
inactive: bafetinib -0.097 | [1] -0.101 | nilotinib 0.142 | [2] -0.093 | dasatinib 0.006 | [3] -0.092 | [4] 0.079 | [5] 0.156 | tipifarnib 0.116 | mubritinib 0.01

POLR3C (UniProt Q9BUI4)
inactive: bafetinib -0.049 | [1] -0.037 | nilotinib 0 | [2] -0.012 | dasatinib -0.019 | [3] -0.027 | [4] 0.036 | [5] 0.051 | tipifarnib -0.009 | mubritinib 0.018

POMK (UniProt Q9H5K3)
inactive: bafetinib -0.057 | [1] 0.067 | nilotinib -0.032 | [2] -0.029 | dasatinib -0.05 | [3] 0.016 | [4] 0 | [5] 0.034 | tipifarnib -0.044 | mubritinib -0.126

PPM1B (UniProt O75688)
inactive: bafetinib -0.033 | [1] -0.04 | nilotinib -0.001 | [2] 0.032 | dasatinib -0.067 | [3] 0.003 | [4] 0.044 | [5] -0.057 | tipifarnib -0.071 | mubritinib 0.06

POP5 (UniProt Q969H6)
inactive: bafetinib -0.016 | [1] -0.017 | nilotinib 0.006 | [2] -0.089 | dasatinib -0.002 | [3] 0.045 | [4] -0.032 | [5] -0.017 | tipifarnib 0.02 | mubritinib 0.052

POLR3F (UniProt Q9H1D9)
inactive: bafetinib -0.064 | [1] -0.012 | nilotinib 0.004 | [2] -0.006 | dasatinib 0.038 | [3] -0.011 | [4] 0.048 | [5] 0.036 | tipifarnib 0.097 | mubritinib 0.026

PLOD1 isoform 2 (UniProt Q02809)
inactive: bafetinib 0.052 | [1] 0.033 | nilotinib 0.015 | [2] 0.072 | dasatinib 0.05 | [3] -0.044 | [4] -0.113 | [5] -0.03 | tipifarnib 0.121 | mubritinib -0.11

PPIE (UniProt Q9UNP9)
inactive: bafetinib -0.084 | [1] 0.006 | nilotinib -0.019 | [2] -0.103 | dasatinib 0.029 | [3] 0 | [4] -0.034 | [5] 0.044 | tipifarnib 0.08 | mubritinib 0.056

PLVAP (UniProt Q9BX97)
inactive: bafetinib 0.218 | [1] -0.096 | nilotinib 0.038 | [2] 0.083 | dasatinib 0.057 | [3] 0.023 | [4] 0.174 | [5] 0.29 | tipifarnib 0.046 | mubritinib -0.145

POLDIP2 (UniProt Q9Y2S7)
inactive: bafetinib -0.007 | [1] -0.038 | nilotinib -0.02 | [2] -0.047 | dasatinib -0.076 | [3] -0.011 | [4] 0.012 | [5] -0.034 | tipifarnib 0.002 | mubritinib 0.044

POLR1A (UniProt O95602)
inactive: bafetinib -0.11 | [1] 0.004 | nilotinib -0.051 | [2] 0.046 | dasatinib 0.046 | [3] -0.003 | [4] -0.16 | [5] -0.057 | tipifarnib 0.019 | mubritinib 0.069

POLR2A (UniProt P24928)
inactive: bafetinib -0.019 | [1] -0.014 | nilotinib -0.039 | [2] 0.24 | dasatinib -0.066 | [4] 0 | [5] -0.037 | tipifarnib 0.004 | mubritinib 0.038
active: [3] 0.511

POLR2D (UniProt O15514)
inactive: bafetinib 0.009 | [1] -0.076 | nilotinib -0.028 | [2] 0.122 | dasatinib -0.013 | [3] 0.202 | [4] -0.036 | [5] 0.034 | tipifarnib -0.01 | mubritinib 0.052

POLR2I (UniProt P36954)
inactive: bafetinib -0.044 | [1] 0.024 | nilotinib -0.026 | [2] 0.233 | dasatinib 0.079 | [3] 0.338 | [4] -0.029 | [5] 0.021 | tipifarnib 0.072 | mubritinib -0.054

POU2F1 isoform 6 (UniProt P14859)
inactive: bafetinib 0.026 | [1] 0.11 | nilotinib -0.079 | [2] -0.048 | dasatinib -0.204 | [3] 0.06 | [4] 0.002 | [5] -0.005 | tipifarnib -0.028 | mubritinib 0.088

PLIN3 (UniProt O60664)
inactive: bafetinib -0.037 | [1] -0.002 | nilotinib 0.01 | [2] -0.001 | dasatinib -0.015 | [3] -0.008 | [4] 0.022 | [5] 0.008 | tipifarnib -0.059 | mubritinib 0.028
